Source: PubChem BioAssay AID1259308 (NCATS, 2017)

Test: 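Knock-downs that increase output of a recombinant reporter protein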 (primary screen)
Cell system: human HEK293 embryonic kidney cells stably expressing firefly luciferase (HEK-CMV-Luc2-Hygro)
Reagent: single siRNA against human genes, 0.8 pmol siRNA per well
Duration: 72 h
Read-out: 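Reporter luminescence and viable-cell signal on separate replicate plates, given as percent of non-targeting control and median/MAD z-scores, plus per-cell luciferase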
Reading the numbers: total luciferase, z-score and total luciferase, % of control: higher = more reporter protein produced; luciferase per cell, z-score: higher = more reporter output per viable cell; viable cells, % of control: higher = more viable cells
Hit rule: 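Active when the median/MAD z-score for overall luciferase is greater than 3; a gene was taken forward for validation with new siRNAs if at least two of its three siRNAs passed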
Calls: active = raised luciferase; inactive = no rise
In all, the deposit lists about 59,000 reagents; this is a random part of them. Over the whole deposit, about 1,510 (2.6%) are marked active. 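Calls use total luciferase alone and ignore viability, so some active siRNAs may act by altering cell number.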 Entries without a mark were called inactive. The numbers tell different reagents against one gene apart. Reagent sequences are not shown.

target gene | reagent no. | total luciferase, z-score | total luciferase, % of control | luciferase per cell, z-score | viable cells, % of control
ATP13A2 (GeneID 23400) | 1 | -0.926 | 63.5 | -1.29 | 99.5
ATP13A2 (GeneID 23400) | 2 | -1.87 | 44.7 | -1.83 | 80.9
ATP13A2 (GeneID 23400) | 3 | 2.14 | 124 | 1.28 | 99.3
SLC12A5 (GeneID 57468) | 1 | -1 | 62 | -0.849 | 86.6
SLC12A5 (GeneID 57468) | 2 | -1.33 | 55.5 | -1.18 | 84.7
SLC12A5 (GeneID 57468) | 3 | -0.307 | 75.8 | 1.08 | 63.7
CFTR (GeneID 1080) | 1 | -0.582 | 70.3 | 0.0138 | 78.3
CFTR (GeneID 1080) | 2 | -0.565 | 70.6 | -0.536 | 90.9
CFTR (GeneID 1080) | 3 | -1.46 | 52.8 | -1.3 | 83.1
SPANXN1 (GeneID 494118) | 1 | 0.465 | 91.1 | -0.0507 | 103
SPANXN1 (GeneID 494118) | 2 | 1.25 | 107 | 1.03 | 90.9
SPANXN1 (GeneID 494118) | 3 | -0.773 | 66.5 | -0.368 | 81.9
C1QTNF5 (GeneID 114902) | 1 | 1.56 | 113 | 1.02 | 96.6
C1QTNF5 (GeneID 114902) | 2 | 0.28 | 87.5 | 0.709 | 81.1
C1QTNF5 (GeneID 114902) | 3 | 2.55 | 133 | 2.02 | 87.1
THAP6 (GeneID 152815) | 1 | 1.28 | 107 | 0.578 | 103
THAP6 (GeneID 152815) | 2 | -0.541 | 71.1 | -0.414 | 88.6
THAP6 (GeneID 152815) | 3 | -0.0652 | 80.6 | 0.318 | 82.8
SELENOK (GeneID 58515) | 1 | -0.0407 | 81.1 | 0.357 | 82.5
SELENOK (GeneID 58515) | 2 | -0.0456 | 81 | -0.184 | 95
SELENOK (GeneID 58515) | 3 | -0.828 | 65.4 | -0.971 | 94.4
KIRREL1 (GeneID 55243) | 1 | 0.401 | 89.9 | 0.755 | 82.3
KIRREL1 (GeneID 55243) | 2 | -0.561 | 70.7 | -0.468 | 89.4
KIRREL1 (GeneID 55243) | 3 | 0.15 | 84.9 | 0.845 | 75.9

In a second layout: entries from further up
{"target gene":"ATP13A2 (GeneID 23400)","reagent no.":2,"total luciferase, z-score":-1.87,"total luciferase, % of control":44.7,"luciferase per cell, z-score":-1.83,"viable cells, % of control":80.9}
{"target gene":"ATP13A2 (GeneID 23400)","reagent no.":3,"total luciferase, z-score":2.14,"total luciferase, % of control":124,"luciferase per cell, z-score":1.28,"viable cells, % of control":99.3}
